{"sequences": {"note": "Chains of the proteins cited; added tags and fusions are not shown.", "UniProt P25054": "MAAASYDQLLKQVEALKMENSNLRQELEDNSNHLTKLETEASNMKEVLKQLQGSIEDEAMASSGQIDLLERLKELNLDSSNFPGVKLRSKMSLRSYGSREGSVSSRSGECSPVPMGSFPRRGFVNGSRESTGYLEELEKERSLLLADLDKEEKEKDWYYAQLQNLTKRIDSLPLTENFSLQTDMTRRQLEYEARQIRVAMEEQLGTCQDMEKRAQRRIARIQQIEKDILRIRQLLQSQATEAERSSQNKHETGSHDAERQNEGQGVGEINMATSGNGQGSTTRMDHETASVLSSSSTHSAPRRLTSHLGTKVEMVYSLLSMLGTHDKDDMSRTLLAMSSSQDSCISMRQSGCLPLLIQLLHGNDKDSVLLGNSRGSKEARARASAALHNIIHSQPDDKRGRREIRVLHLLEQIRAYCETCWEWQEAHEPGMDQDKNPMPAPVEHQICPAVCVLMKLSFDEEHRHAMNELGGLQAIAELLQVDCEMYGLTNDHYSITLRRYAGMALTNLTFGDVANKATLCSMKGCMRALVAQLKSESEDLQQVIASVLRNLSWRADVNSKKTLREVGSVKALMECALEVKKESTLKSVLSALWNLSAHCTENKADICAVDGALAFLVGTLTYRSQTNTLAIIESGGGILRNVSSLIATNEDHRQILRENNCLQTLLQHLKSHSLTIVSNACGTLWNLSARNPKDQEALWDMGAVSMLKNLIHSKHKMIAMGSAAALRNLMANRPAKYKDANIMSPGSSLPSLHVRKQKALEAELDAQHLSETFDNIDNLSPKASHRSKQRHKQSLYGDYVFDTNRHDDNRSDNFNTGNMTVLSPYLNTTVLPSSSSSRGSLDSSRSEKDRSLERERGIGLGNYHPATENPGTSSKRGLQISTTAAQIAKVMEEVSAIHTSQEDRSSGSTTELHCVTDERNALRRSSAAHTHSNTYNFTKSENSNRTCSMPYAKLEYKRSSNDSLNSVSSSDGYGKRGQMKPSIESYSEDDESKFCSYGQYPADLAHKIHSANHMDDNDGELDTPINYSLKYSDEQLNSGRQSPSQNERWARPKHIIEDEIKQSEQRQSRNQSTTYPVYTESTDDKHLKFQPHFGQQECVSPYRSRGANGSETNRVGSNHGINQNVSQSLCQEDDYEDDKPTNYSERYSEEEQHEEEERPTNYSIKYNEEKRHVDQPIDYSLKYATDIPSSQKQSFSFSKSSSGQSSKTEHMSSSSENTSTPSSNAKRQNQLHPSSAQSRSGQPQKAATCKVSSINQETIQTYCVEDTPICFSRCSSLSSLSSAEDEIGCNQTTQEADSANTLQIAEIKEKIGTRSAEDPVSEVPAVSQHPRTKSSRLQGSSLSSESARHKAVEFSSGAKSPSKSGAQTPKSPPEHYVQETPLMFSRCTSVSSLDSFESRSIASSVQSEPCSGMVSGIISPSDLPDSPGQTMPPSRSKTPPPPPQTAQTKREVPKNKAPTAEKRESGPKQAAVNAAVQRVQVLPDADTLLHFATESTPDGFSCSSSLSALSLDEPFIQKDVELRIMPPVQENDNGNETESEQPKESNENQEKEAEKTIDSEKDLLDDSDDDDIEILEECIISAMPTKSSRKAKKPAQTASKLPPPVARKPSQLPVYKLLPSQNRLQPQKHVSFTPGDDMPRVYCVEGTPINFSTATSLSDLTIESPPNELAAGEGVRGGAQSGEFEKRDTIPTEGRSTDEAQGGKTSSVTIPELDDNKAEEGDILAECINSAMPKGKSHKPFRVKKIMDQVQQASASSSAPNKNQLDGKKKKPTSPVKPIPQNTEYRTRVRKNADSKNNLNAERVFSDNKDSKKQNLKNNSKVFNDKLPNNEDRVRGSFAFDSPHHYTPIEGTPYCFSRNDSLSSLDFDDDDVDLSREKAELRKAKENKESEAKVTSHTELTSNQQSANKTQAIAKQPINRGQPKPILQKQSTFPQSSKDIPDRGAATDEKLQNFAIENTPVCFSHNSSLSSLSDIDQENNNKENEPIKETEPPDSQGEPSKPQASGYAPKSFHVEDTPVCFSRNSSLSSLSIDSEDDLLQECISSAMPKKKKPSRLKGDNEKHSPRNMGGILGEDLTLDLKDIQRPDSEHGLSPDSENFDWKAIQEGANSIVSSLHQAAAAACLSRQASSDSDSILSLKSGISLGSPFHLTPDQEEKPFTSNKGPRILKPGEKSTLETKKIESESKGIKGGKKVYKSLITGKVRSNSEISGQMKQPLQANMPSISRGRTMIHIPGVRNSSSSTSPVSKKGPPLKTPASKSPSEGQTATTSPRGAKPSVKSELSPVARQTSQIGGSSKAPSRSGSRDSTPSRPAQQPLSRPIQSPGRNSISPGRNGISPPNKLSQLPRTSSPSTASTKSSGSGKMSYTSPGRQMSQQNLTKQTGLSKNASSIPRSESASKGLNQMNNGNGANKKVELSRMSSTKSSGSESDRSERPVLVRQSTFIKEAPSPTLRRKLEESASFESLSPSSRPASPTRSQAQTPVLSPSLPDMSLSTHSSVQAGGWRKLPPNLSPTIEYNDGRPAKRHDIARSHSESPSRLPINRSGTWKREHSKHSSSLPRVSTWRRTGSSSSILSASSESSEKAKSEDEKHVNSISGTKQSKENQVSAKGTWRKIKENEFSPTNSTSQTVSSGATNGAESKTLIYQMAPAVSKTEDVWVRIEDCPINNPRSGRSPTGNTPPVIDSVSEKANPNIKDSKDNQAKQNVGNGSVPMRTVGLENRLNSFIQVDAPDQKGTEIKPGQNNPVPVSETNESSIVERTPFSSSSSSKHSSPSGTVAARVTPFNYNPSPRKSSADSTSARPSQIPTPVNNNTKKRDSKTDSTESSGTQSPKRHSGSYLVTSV", "UniProt P20700": "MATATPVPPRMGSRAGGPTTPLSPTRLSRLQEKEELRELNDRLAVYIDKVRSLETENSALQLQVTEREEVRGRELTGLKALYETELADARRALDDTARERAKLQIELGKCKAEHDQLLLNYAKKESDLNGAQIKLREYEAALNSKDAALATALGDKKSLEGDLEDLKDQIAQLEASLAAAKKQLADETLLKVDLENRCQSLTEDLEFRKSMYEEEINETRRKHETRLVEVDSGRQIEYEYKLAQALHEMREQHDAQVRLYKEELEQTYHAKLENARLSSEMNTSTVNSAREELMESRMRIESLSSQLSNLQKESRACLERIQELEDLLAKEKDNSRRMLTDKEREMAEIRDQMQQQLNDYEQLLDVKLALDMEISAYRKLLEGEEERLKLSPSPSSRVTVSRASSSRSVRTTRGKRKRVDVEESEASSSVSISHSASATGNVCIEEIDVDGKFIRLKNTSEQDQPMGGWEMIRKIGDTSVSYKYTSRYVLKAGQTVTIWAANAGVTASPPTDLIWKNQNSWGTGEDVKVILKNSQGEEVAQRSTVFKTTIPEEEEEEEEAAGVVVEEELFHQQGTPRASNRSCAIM"}, "source": "paper PMC2774295", "molecules": {"B1": {"name": "Lamin B2 (protein, UniProt Q03252 1-620)", "chain": "MSPPSPGRRREQRRPRAAATMATPLPGRAGGPATPLSPTRLSRLQEKEELRELNDRLAHYIDRVRALELENDRLLLKISEKEEVTTREVSGIKALYESELADARRVLDETARERARLQIEIGKLRAELDEVNKSAKKREGELTVAQGRVKDLESLFHRSEVELAAALSDKRGLESDVAELRAQLAKAEDGHAVAKKQLEKETLMRVDLENRCQSLQEELDFRKSVFEEEVRETRRRHERRLVEVDSSRQQEYDFKMAQALEELRSQHDEQVRLYKLELEQTYQAKLDSAKLSSDQNDKAASAAREELKEARMRLESLSYQLSGLQKQASAAEDRIRELEEAMAGERDKFRKMLDAKEQEMTEMRDVMQQQLAEYQELLDVKLALDMEINAYRKLLEGEEERLKLSPSPSSRVTVSRATSSSSGSLSATGRLGRSKRKRLEVEEPLGSGPSVLGTGTGGSGGFHLAQQASASGSVSIEEIDLEGKFVQLKNNSDKDQSLGNWRIKRQVLEGEEIAYKFTPKYILRAGQMVTVWAAGAGVAHSPPSTLVWKGQSSWGTGESFRTVLVNADGEEVAMRTVKKSSVMRENENGEEEEEEAEFGEEDLFHQQGDPRTTSRGCYVM"}, "B2": {"name": "Keratin 81 (protein, UniProt Q14533 1-505)", "chain": "MTCGSGFGGRAFSCISACGPRPGRCCITAAPYRGISCYRGLTGGFGSHSVCGGFRAGSCGRSFGYRSGGVCGPSPPCITTVSVNESLLTPLNLEIDPNAQCVKQEEKEQIKSLNSRFAAFIDKVRFLEQQNKLLETKLQFYQNRECCQSNLEPLFEGYIETLRREAECVEADSGRLASELNHVQEVLEGYKKKYEEEVSLRATAENEFVALKKDVDCAYLRKSDLEANVEALIQEIDFLRRLYEEEILILQSHISDTSVVVKLDNSRDLNMDCIIAEIKAQYDDIVTRSRAEAESWYRSKCEEMKATVIRHGETLRRTKEEINELNRMIQRLTAEVENAKCQNSKLEAAVAQSEQQGEAALSDARCKLAELEGALQKAKQDMACLIREYQEVMNSKLGLDIEIATYRRLLEGEEQRLCEGIGAVNVCVSSSRGGVVCGDLCVSGSRPVTGSVCSAPCNGNVAVSTGLCAPCGQLNTTCGGGSCGVGSCGISSLGVGSCGSSCRKC"}, "B3": {"name": "Keratin 82 (protein, UniProt Q9NSB4 1-513)", "chain": "MSYHSFQPGSRCGSQSFSSYSAVMPRMVTHYAVSKGPCRPGGGRGLRALGCLGSRSLCNVGFGRPRVASRCGGTLPGFGYRLGATCGPSACITPVTINESLLVPLALEIDPTVQRVKRDEKEQIKCLNNRFASFINKVRFLEQKNKLLETKWNFMQQQRCCQTNIEPIFEGYISALRRQLDCVSGDRVRLESELCSLQAALEGYKKKYEEELSLRPCVENEFVALKKDVDTAFLMKADLETNAEALVQEIDFLKSLYEEEICLLQSQISETSVIVKMDNSRELDVDGIIAEIKAQYDDIASRSKAEAEAWYQCRYEELRVTAGNHCDNLRNRKNEILEMNKLIQRLQQETENVKAQRCKLEGAIAEAEQQGEAALNDAKCKLAGLEEALQKAKQDMACLLKEYQEVMNSKLGLDIEIATYRRLLEGEEHRLCEGIGPVNISVSSSKGAFLYEPCGVSTPVLSTGVLRSNGGCSIVGTGELYVPCEPQGLLSCGSGRKSSMTLGAGGSSPSHKH"}}, "note": "These are yes or no findings as the source states them, for the method shown. In cells and extracts the contact can be indirect. These calls come from enrichment with a bait or labelling near it, and not all partners need be listed."}
{"molecular_target": "Adenomatous Polyposis Coli (APC), endogenous full-length (human (endogenous in HCT116βw)) (UniProt P25054)", "assay": "affinity purification with mass spectrometry; proteins co-precipitated with APC-M2 pAb from HCT116βw cell lysates, resolved on a 4-12% NUPAGE gel, nine bands excised and pooled, LC-MS/MS in independent duplicate; proteins found with preimmune sera subtracted"}
{"molecule": "Lamin B1 (from UniProt P20700 1-586)", "binding": "binds"}
{"molecule": "B1", "binding": "binds"}
{"molecule": "B2", "binding": "binds"}
{"molecule": "B3", "binding": "binds"}
